Measured values reported in publication doi:10.1101/2022.05.24.493251.
Positions count from the first letter of the chain named. For at least one entry, the source does not settle the construct or the ends of the probe. Weaker means in comparison with the reference protein, sequence or condition of that experiment. At least one verdict rests on a figure or table, not on a statement of the authors. Tags and fusion partners may be left off the protein sequences shown.

Sequences of proteins named here, by UniProt entry; tags and fusion partners are left off. A change or cut given only in a name is not applied to a line headed by its entry.
UniProt Q01560: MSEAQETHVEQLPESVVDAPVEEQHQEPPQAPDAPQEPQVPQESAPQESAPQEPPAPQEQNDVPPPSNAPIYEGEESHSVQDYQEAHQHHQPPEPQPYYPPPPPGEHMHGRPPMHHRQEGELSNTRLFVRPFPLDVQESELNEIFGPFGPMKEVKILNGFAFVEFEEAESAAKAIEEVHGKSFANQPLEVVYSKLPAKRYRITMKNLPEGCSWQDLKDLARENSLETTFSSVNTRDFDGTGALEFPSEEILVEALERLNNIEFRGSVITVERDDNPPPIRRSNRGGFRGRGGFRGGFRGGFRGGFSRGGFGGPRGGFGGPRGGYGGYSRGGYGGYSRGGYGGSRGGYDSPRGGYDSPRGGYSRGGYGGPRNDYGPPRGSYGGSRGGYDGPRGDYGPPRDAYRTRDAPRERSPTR

What was measured:
Experiment in all cases: NMR titration
[1] = molecular target: T1, Npl3 RRM2 Q214A (Saccharomyces cerevisiae) (UniProt Q01560); settings: 40 C, RRM2 buffer; residues 193-282
T1 sequence (looked up): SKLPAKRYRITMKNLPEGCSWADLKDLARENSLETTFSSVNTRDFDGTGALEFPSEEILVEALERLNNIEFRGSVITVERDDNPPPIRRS

[2] = molecular target: T2, Npl3 RRM2 K217A (Saccharomyces cerevisiae) (UniProt Q01560); settings: 40 C, RRM2 buffer; residues 193-282
T2 sequence (looked up): T1 sequence (looked up) with A22Q, K25A

[3] = molecular target: T3, Npl3 RRM2 Q214A K217A (Saccharomyces cerevisiae) (UniProt Q01560); settings: 40 C, RRM2 buffer; residues 193-282
T3 sequence (looked up): T1 sequence (looked up) with K25A

[4] = molecular target: T4, Npl3 RRM1 F128A (Saccharomyces cerevisiae) (UniProt Q01560); settings: 40 C, RRM1 buffer; residues 114-201
T4 sequence (looked up): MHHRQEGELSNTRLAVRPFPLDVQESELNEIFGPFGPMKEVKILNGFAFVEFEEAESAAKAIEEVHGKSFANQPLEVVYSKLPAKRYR

ATGGTC: binds more weakly [1]; binds more weakly [2].
AUGGUC: binds more weakly [3].
CCCCCC [polyC 6mer]: binds more weakly [4].
